Source: the supplement of paper PMC10849652
The list shows a part of the results.

Amino acid sequences for entries named in this document (tags omitted). A change or cut given only in a name is not applied to a line headed by its entry.
UniProt Q14693: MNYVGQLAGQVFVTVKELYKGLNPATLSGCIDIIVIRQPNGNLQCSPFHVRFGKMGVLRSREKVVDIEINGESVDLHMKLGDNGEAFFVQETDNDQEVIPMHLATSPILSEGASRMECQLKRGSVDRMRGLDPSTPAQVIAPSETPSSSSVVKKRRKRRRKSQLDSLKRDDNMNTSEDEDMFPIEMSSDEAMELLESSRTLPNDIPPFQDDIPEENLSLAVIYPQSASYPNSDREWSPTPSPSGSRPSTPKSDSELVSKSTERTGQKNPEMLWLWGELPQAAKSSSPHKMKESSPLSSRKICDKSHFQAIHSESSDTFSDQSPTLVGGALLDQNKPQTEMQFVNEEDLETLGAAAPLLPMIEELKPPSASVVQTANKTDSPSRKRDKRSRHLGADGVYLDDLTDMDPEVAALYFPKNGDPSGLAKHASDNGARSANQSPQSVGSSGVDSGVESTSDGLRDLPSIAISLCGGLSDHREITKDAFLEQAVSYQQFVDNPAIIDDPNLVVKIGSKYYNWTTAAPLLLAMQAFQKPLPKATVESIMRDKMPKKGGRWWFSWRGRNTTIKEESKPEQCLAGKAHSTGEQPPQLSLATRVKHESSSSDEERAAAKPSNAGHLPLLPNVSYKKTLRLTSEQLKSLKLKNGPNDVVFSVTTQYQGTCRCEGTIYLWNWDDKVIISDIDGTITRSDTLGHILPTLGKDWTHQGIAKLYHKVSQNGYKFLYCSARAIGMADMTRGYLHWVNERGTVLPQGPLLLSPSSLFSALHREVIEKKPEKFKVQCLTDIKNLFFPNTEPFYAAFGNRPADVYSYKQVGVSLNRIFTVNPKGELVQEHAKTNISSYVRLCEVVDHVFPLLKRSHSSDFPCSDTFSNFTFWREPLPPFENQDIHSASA
UniProt Q9BRT6: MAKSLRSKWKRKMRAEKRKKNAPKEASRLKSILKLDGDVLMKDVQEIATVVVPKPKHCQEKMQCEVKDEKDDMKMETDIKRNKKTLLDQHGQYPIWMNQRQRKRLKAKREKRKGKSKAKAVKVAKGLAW
UniProt P49916: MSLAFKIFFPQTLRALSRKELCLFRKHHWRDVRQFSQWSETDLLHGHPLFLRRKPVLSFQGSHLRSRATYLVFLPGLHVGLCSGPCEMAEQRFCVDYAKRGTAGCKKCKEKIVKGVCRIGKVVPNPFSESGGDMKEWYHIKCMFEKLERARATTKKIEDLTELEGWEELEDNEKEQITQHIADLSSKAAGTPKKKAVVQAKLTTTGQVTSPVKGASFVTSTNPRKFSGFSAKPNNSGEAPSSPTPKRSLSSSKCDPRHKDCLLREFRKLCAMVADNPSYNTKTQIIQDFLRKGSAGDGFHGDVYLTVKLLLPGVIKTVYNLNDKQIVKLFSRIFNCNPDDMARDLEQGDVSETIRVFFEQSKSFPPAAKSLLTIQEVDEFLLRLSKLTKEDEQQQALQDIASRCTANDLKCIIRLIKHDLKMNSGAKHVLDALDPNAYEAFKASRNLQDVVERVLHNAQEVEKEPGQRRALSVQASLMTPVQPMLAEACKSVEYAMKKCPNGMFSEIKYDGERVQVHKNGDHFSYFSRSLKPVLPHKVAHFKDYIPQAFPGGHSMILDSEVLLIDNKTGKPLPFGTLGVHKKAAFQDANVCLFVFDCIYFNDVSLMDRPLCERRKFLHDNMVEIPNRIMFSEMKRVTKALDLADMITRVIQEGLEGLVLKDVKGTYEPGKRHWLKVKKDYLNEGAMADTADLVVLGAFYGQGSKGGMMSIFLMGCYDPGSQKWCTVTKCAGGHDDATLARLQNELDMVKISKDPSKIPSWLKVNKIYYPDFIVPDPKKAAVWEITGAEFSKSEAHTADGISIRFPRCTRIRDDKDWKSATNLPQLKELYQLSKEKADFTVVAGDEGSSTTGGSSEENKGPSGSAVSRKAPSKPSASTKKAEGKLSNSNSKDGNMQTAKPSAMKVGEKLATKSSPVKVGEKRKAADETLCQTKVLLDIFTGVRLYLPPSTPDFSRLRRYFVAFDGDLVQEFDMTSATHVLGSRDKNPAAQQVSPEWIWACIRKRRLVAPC
UniProt Q9Y4Z0: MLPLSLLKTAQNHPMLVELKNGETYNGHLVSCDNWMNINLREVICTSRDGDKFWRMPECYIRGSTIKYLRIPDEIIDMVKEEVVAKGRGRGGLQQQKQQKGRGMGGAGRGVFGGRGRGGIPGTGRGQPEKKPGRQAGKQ
UniProt Q6P1Q0: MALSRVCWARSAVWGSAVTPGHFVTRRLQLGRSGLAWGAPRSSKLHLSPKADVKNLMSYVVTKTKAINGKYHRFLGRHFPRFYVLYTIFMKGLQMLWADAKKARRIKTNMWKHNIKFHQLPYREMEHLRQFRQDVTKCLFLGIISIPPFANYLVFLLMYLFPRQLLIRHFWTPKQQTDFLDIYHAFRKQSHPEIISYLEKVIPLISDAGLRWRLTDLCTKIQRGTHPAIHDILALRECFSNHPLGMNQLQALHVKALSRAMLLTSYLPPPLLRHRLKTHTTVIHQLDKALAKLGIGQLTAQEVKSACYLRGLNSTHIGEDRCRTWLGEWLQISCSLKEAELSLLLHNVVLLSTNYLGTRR
UniProt Q5TKA1: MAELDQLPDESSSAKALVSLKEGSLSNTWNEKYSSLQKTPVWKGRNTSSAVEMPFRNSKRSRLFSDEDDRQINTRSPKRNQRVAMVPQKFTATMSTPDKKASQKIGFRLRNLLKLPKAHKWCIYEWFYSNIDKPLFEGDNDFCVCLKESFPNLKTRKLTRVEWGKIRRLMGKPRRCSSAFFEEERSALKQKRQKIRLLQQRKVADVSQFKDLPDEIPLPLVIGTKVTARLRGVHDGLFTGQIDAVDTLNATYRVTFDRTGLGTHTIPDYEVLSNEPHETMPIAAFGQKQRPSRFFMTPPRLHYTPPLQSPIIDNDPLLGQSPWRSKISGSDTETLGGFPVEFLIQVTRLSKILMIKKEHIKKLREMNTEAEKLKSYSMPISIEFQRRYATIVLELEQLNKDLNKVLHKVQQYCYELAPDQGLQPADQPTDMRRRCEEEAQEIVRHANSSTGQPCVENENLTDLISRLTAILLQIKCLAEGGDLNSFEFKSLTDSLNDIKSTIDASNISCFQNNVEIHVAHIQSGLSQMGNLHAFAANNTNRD
UniProt Q3MHD2: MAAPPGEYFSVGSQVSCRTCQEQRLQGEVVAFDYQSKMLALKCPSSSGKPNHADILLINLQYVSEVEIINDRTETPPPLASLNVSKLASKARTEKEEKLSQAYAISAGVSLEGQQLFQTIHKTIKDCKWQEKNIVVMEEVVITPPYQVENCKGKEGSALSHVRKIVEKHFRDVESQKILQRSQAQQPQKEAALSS
UniProt O95777: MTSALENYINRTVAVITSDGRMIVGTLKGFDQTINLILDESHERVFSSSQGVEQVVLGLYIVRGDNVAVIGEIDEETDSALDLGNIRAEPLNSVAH
UniProt Q86U70: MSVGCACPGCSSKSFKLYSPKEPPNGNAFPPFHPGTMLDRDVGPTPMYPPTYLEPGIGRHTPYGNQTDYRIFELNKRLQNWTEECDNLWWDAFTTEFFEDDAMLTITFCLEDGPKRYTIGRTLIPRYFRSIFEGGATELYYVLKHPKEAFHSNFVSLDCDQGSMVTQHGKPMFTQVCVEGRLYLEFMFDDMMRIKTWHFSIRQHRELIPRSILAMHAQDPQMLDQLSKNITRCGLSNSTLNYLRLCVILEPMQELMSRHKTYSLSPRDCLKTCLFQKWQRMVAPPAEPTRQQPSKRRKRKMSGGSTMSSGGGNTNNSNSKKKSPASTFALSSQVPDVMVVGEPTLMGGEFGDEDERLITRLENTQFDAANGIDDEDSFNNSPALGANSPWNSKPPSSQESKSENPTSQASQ
UniProt Q86X29: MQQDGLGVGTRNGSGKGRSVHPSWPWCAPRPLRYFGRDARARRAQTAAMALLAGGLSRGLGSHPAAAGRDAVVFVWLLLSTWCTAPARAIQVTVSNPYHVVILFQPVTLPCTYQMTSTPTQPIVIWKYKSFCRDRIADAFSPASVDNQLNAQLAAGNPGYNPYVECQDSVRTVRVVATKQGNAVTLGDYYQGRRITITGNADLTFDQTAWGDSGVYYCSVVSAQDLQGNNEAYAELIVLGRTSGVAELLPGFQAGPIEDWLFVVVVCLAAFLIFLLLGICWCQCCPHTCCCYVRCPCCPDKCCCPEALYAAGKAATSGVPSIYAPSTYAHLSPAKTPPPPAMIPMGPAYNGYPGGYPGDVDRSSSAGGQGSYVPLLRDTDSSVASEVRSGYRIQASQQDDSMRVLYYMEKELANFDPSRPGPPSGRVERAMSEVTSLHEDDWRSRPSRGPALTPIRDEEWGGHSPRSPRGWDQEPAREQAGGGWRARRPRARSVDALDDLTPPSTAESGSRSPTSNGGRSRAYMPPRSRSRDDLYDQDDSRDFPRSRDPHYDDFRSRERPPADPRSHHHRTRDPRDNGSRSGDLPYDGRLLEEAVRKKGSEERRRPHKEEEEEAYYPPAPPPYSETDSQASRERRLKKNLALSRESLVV
UniProt Q03252: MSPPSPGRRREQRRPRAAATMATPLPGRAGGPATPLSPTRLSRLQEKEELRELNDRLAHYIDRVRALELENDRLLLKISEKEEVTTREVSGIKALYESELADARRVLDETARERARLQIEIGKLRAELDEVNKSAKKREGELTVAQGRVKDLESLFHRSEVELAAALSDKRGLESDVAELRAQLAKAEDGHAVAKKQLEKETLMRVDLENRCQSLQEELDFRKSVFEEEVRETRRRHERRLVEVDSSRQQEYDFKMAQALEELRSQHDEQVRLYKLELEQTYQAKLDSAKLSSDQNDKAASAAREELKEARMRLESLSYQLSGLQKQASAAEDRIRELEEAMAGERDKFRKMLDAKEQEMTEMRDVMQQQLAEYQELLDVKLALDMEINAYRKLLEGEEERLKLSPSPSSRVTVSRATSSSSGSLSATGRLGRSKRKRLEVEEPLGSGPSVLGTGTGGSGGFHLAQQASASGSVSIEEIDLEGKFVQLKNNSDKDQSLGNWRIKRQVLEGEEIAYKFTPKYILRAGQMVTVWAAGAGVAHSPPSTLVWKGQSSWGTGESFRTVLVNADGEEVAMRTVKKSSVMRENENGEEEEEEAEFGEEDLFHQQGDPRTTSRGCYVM
UniProt P01130: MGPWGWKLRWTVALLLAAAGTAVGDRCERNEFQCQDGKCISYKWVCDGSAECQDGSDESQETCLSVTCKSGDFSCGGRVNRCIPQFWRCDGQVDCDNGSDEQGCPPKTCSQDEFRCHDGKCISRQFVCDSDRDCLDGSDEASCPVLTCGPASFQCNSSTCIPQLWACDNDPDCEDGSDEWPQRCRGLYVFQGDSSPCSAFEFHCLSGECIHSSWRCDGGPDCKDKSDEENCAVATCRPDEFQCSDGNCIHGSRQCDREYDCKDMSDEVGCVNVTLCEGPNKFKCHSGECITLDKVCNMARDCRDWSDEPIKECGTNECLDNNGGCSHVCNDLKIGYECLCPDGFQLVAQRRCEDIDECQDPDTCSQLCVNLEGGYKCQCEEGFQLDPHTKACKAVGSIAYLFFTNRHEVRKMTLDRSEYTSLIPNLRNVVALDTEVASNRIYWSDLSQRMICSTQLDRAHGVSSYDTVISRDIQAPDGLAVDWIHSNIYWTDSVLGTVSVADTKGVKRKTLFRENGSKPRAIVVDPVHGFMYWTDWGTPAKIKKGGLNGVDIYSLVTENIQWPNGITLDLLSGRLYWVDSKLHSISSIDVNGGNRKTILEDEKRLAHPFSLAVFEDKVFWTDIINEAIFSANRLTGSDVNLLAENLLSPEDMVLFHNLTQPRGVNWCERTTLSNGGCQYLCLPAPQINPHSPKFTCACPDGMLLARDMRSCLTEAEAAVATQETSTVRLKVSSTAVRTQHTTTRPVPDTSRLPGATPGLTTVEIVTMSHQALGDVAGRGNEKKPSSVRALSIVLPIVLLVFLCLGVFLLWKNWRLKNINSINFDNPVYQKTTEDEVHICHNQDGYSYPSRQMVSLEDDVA
UniProt Q96AG4: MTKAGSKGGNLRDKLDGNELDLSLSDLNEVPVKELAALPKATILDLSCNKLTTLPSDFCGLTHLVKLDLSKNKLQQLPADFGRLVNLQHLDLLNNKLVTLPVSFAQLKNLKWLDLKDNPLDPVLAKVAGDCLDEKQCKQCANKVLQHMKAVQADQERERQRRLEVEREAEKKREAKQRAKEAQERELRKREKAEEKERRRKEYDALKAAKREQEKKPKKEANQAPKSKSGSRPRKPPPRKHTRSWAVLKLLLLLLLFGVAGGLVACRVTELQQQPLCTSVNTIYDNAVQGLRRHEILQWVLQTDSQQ
UniProt Q6ZN17: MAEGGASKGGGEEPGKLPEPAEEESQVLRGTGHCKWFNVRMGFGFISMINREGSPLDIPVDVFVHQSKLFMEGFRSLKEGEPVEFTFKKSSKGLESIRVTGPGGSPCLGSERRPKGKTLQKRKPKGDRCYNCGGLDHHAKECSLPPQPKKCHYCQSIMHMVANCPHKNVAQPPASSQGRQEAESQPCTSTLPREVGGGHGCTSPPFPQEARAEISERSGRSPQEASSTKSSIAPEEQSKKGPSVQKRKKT

Tests used:
Test in all cases: log2 fold change, soluble protein after heating vs DMSO (PISA); higher = thermal stabilisation; K562 lysate, 10 uM; active = over 0.2 and 3.5 SD of the protein, either way, in both replicates (recomputed)
vemurafenib = compound: CCCS(=O)(=O)Nc1ccc(F)c(C(=O)c2c[nH]c3ncc(-c4ccc(Cl)cc4)cc23)c1F [vemurafenib]
How it was run: (§1)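 A 30 min treatment with 10 μM compound was applied to crude K562 extract at 1 mg/mL protein in PBS pH 7.4 with 1 mM MgCl2. Heating for 3 min spanned 48°C-58°C, after which aliquots were pooled, adjusted to 0.5% NP-40 at 4°C and spun at 21,000xg for 90 min. TMTpro 16plex LC-MS/MS of the supernatant, with channel sums equalised, gave values recorded as log-two fold change in thermal stability against solvent controls, from duplicates.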

[1] = compound: CCCS(=O)(=O)Nc1ccc(F)c(C(=O)c2c[nH]c3ncc(Cl)cc23)c1F
How it was run: as §1

barasertib = compound: CCN(CCCOc1ccc2c(Nc3cc(CC(=O)Nc4cccc(F)c4)[nH]n3)ncnc2c1)CCOP(=O)(O)O [barasertib]
How it was run: as §1

[2] = compound: CC[C@@H]1C(=O)N(C)c2cnc(Nc3ccc(C(=O)NC4CCN(C)CC4)cc3OC)nc2N1C1CCCC1
How it was run: as §1

volasertib = compound: CC[C@@H]1C(=O)N(C)c2cnc(Nc3ccc(C(=O)N[C@H]4CC[C@H](N5CCN(CC6CC6)CC5)CC4)cc3OC)nc2N1C(C)C [volasertib]
How it was run: as §1

[3] = compound: CCn1c(C(=O)N(C2CC2)C2CC2)cc2c3c(ncn3C)c(Nc3cc(C)n(C)n3)nc21
How it was run: as §1

[4] = compound: CCn1cc(-c2ccnc3[nH]c(-c4cccc(CN(C)C)c4)cc23)c(-c2ccc(NC(=O)N(C)C)cc2)n1
How it was run: as §1

[5] = compound: CN1CCC(CNc2ccc3ncc(-c4cccc(OC(F)(F)F)c4)n3n2)CC1
How it was run: as §1

saracatinib = compound: CN1CCN(CCOc2cc(OC3CCOCC3)c3c(Nc4c(Cl)ccc5c4OCO5)ncnc3c2)CC1 [saracatinib]
How it was run: as §1

sotrastaurin = compound: CN1CCN(c2nc(C3=C(c4c[nH]c5ccccc45)C(=O)NC3=O)c3ccccc3n2)CC1 [sotrastaurin]
How it was run: as §1

alvocidib = compound: CN1CC[C@H](c2c(O)cc(O)c3c(=O)cc(-c4ccccc4Cl)oc23)[C@H](O)C1 [alvocidib]
How it was run: as §1

Tubastatin A = compound: CN1CCc2c(c3ccccc3n2Cc2ccc(C(=O)NO)cc2)C1 [Tubastatin A]
How it was run: as §1

[6] = compound: CNC(=O)C1=CC=CC=C1NC2=NC(=NC=C2Cl)NC3=C(C=C(C=C3)N4CCOCC4)OC
How it was run: as §1

defactinib = compound: CNC(=O)c1ccc(Nc2ncc(C(F)(F)F)c(NCc3nccnc3N(C)S(C)(=O)=O)n2)cc1 [defactinib]
How it was run: as §1

[7] = compound: CNc1nc(-c2ccc3c(N)n[nH]c3c2)cc(N2C[C@@H](C(=O)NC3CCCCC3)CC[C@H]2C)n1
How it was run: as §1

encorafenib = compound: COC(=O)N[C@@H](C)CNc1nccc(-c2cn(C(C)C)nc2-c2cc(Cl)cc(NS(C)(=O)=O)c2F)n1 [encorafenib]
How it was run: as §1

[8] = compound: COC(=O)[C@H](CCSC)NC(=O)C1=C(C=C(C=C1)NC[C@H](CS)N)C2=CC=CC=C2
How it was run: as §1

alisertib = compound: COc1cc(Nc2ncc3c(n2)-c2ccc(Cl)cc2C(c2c(F)cccc2OC)=NC3)ccc1C(=O)O [alisertib]
How it was run: as §1

[9] = compound: COc1cc2nc(-c3cc(F)ccc3O)nc(N[C@@H]3CNC[C@H]3C(C)(C)O)c2cc1OC
How it was run: as §1

gefitinib = compound: COc1cc2ncnc(Nc3ccc(F)c(Cl)c3)c2cc1OCCCN1CCOCC1 [gefitinib]
How it was run: as §1

Measured: log2 fold change

LPIN1 isoform 7 (UniProt Q14693)
inactive: vemurafenib -0.057 | [1] 0.065 | barasertib 0.1 | [2] -0.057 | volasertib -0.002 | [3] -0.003 | [4] -0.052 | [5] -0.05 | saracatinib 0.024 | sotrastaurin 0.028 | alvocidib -0.054 | Tubastatin A -0.05 | [6] -0.006 | defactinib 0.003 | [7] -0.1 | encorafenib 0.089 | [8] -0.064 | alisertib -0.028 | [9] 0.007 | gefitinib -0.04

LEO1 (UniProt Q8WVC0)
inactive: vemurafenib 0.009 | [1] 0.015 | barasertib 0.002 | [2] 0.069 | volasertib -0.017 | [3] 0.001 | [4] 0.007 | [5] -0.006 | saracatinib 0.019 | sotrastaurin -0.058 | alvocidib -0.023 | Tubastatin A 0.047 | [6] 0.003 | defactinib -0.027 | [7] 0.029 | encorafenib -0.026 | [8] 0.001 | alisertib -0.005 | [9] 0.023 | gefitinib 0.07

LLPH (UniProt Q9BRT6)
inactive: vemurafenib -0.035 | [1] 0.032 | barasertib -0.073 | [2] 0.024 | volasertib 0.01 | [3] -0.02 | [4] 0.231 | [5] -0.082 | saracatinib 0.035 | sotrastaurin 0.025 | alvocidib 0.133 | Tubastatin A -0.007 | [6] -0.059 | defactinib 0.035 | [7] 0.019 | encorafenib 0.038 | [8] -0.116 | alisertib -0.061 | [9] -0.005 | gefitinib -0.055

LIG3 (UniProt P49916)
inactive: vemurafenib -0.029 | [1] -0.003 | barasertib 0.019 | [2] -0.127 | volasertib -0.028 | [3] 0.031 | [4] -0.033 | [5] -0.011 | saracatinib 0.018 | sotrastaurin 0.009 | alvocidib -0.017 | Tubastatin A -0.142 | [6] 0.007 | defactinib 0.006 | [7] -0.002 | encorafenib 0.023 | [8] 0.121 | alisertib -0.009 | [9] -0.008 | gefitinib -0.015

LSM4 (UniProt Q9Y4Z0)
inactive: vemurafenib -0.004 | [1] -0.01 | barasertib -0.079 | [2] 0.066 | volasertib 0.051 | [3] -0.022 | [4] -0.137 | [5] 0.074 | saracatinib -0.012 | sotrastaurin -0.001 | alvocidib -0.017 | Tubastatin A 0.024 | [6] 0.001 | defactinib -0.031 | [7] 0.013 | encorafenib -0.004 | [8] -0.044 | alisertib -0.032 | [9] 0.011 | gefitinib -0.02

LETMD1 isoform 7 (UniProt Q6P1Q0)
inactive: vemurafenib 0.136 | [1] 0.026 | barasertib 0.053 | [2] -0.043 | volasertib 0.003 | [3] 0.014 | [4] -0.089 | [5] -0.32 | saracatinib -0.075 | sotrastaurin 0.035 | alvocidib -0.013 | Tubastatin A 0.065 | [6] 0.085 | defactinib -0.009 | [7] 0.018 | encorafenib -0.018 | [8] 0.027 | alisertib 0.013 | [9] -0.121 | gefitinib -0.038

LIN9 isoform 2 (UniProt Q5TKA1)
inactive: vemurafenib -0.001 | [1] 0.064 | barasertib 0.001 | [2] 0.131 | volasertib -0.002 | [3] 0 | [4] -0.04 | [5] -0.057 | saracatinib 0.044 | sotrastaurin 0.002 | alvocidib 0.006 | Tubastatin A 0.027 | [6] 0.018 | defactinib -0.012 | [7] -0.036 | encorafenib 0.015 | [8] -0.075 | alisertib -0.048 | [9] 0.004 | gefitinib 0.016

Taken from above (4 entries):
LLPH (UniProt Q9BRT6)
inactive: vemurafenib -0.035 | [1] 0.032 | barasertib -0.073 | [2] 0.024 | volasertib 0.01 | [3] -0.02 | [4] 0.231 | [5] -0.082 | saracatinib 0.035 | sotrastaurin 0.025 | alvocidib 0.133 | Tubastatin A -0.007 | [6] -0.059 | defactinib 0.035 | [7] 0.019 | encorafenib 0.038 | [8] -0.116 | alisertib -0.061 | [9] -0.005 | gefitinib -0.055

LIG3 (UniProt P49916)
inactive: vemurafenib -0.029 | [1] -0.003 | barasertib 0.019 | [2] -0.127 | volasertib -0.028 | [3] 0.031 | [4] -0.033 | [5] -0.011 | saracatinib 0.018 | sotrastaurin 0.009 | alvocidib -0.017 | Tubastatin A -0.142 | [6] 0.007 | defactinib 0.006 | [7] -0.002 | encorafenib 0.023 | [8] 0.121 | alisertib -0.009 | [9] -0.008 | gefitinib -0.015

LSM4 (UniProt Q9Y4Z0)
inactive: vemurafenib -0.004 | [1] -0.01 | barasertib -0.079 | [2] 0.066 | volasertib 0.051 | [3] -0.022 | [4] -0.137 | [5] 0.074 | saracatinib -0.012 | sotrastaurin -0.001 | alvocidib -0.017 | Tubastatin A 0.024 | [6] 0.001 | defactinib -0.031 | [7] 0.013 | encorafenib -0.004 | [8] -0.044 | alisertib -0.032 | [9] 0.011 | gefitinib -0.02

LETMD1 isoform 7 (UniProt Q6P1Q0)
inactive: vemurafenib 0.136 | [1] 0.026 | barasertib 0.053 | [2] -0.043 | volasertib 0.003 | [3] 0.014 | [4] -0.089 | [5] -0.32 | saracatinib -0.075 | sotrastaurin 0.035 | alvocidib -0.013 | Tubastatin A 0.065 | [6] 0.085 | defactinib -0.009 | [7] 0.018 | encorafenib -0.018 | [8] 0.027 | alisertib 0.013 | [9] -0.121 | gefitinib -0.038

The list continues.

LSM12 (UniProt Q3MHD2)
inactive: vemurafenib 0.023 | [1] 0.02 | barasertib -0.002 | [2] 0.059 | volasertib -0.008 | [3] -0.019 | [4] -0.021 | [5] -0.013 | saracatinib 0.008 | sotrastaurin 0.036 | alvocidib 0.031 | Tubastatin A 0.028 | [6] 0.001 | defactinib 0.073 | [7] 0.057 | encorafenib 0.02 | [8] -0.027 | alisertib -0.001 | [9] -0.019 | gefitinib 0.018

LSM8 (UniProt O95777)
inactive: vemurafenib -0.054 | [1] 0.018 | barasertib 0.355 | [2] -0.019 | volasertib 0.027 | [3] 0 | [4] -0.058 | [5] 0.052 | saracatinib -0.005 | sotrastaurin -0.017 | alvocidib -0.012 | Tubastatin A 0.018 | [6] 0.007 | defactinib 0.048 | [7] -0.028 | encorafenib 0.032 | [8] -0.076 | alisertib -0.026 | [9] 0.005 | gefitinib 0.046

LDB1 (UniProt Q86U70)
inactive: vemurafenib 0.015 | [1] 0.02 | barasertib 0.03 | [2] 0.063 | volasertib -0.021 | [3] -0.022 | [4] -0.049 | [5] 0.114 | saracatinib 0 | sotrastaurin -0.057 | alvocidib -0.009 | Tubastatin A -0.002 | [6] 0.021 | defactinib -0.008 | [7] 0.03 | encorafenib -0.007 | [8] -0.131 | alisertib 0.044 | [9] -0.011 | gefitinib -0.018

LSR (UniProt Q86X29)
inactive: vemurafenib -0.026 | [1] 0.003 | barasertib -0.022 | [2] -0.038 | volasertib -0.043 | [3] 0.091 | [4] -0.027 | [5] 0.037 | saracatinib 0.033 | sotrastaurin 0.04 | alvocidib -0.03 | Tubastatin A -0.045 | [6] -0.033 | defactinib 0.033 | [7] -0.091 | encorafenib 0.063 | [8] -0.041 | alisertib 0.018 | [9] -0.036 | gefitinib 0.024

LMNB2 (UniProt Q03252)
inactive: vemurafenib -0.014 | [1] 0.048 | barasertib 0.007 | [2] 0.015 | volasertib 0.008 | [3] 0.039 | [4] 0.049 | [5] -0.016 | saracatinib -0.008 | sotrastaurin 0.004 | alvocidib -0.008 | Tubastatin A -0.044 | [6] 0.031 | defactinib 0.029 | [7] -0.009 | encorafenib 0.034 | [8] -0.047 | alisertib 0.03 | [9] -0.069 | gefitinib -0.001

LDLR (UniProt P01130)
inactive: vemurafenib -0.015 | [1] 0.034 | barasertib 0.122 | [2] 0.104 | volasertib -0.115 | [3] 0.121 | [4] -0.019 | [5] 0.094 | saracatinib 0.007 | sotrastaurin 0.051 | alvocidib -0.041 | Tubastatin A 0.142 | [6] 0 | defactinib 0.059 | [7] 0.142 | encorafenib 0.03 | [8] -0.022 | alisertib -0.058 | [9] -0.198 | gefitinib -0.03

LRBA, A0A494BZW2
inactive: vemurafenib 0.068 | [1] 0.008 | barasertib 0.059 | [2] -0.026 | volasertib 0.062 | [3] -0.232 | [4] -0.034 | [5] 0.06 | saracatinib 0.068 | sotrastaurin 0.154 | alvocidib -0.014 | Tubastatin A 0.281 | [6] 0.079 | defactinib -0.044 | [7] -0.021 | encorafenib -0.056 | [8] 0.002 | alisertib 0.207 | [9] 0.036 | gefitinib 0.145

LRRC59 (UniProt Q96AG4)
inactive: vemurafenib 0.016 | [1] 0.003 | barasertib -0.007 | [2] 0.008 | volasertib -0.004 | [3] -0.013 | [4] 0.072 | [5] -0.011 | saracatinib -0.02 | sotrastaurin -0.057 | alvocidib -0.005 | Tubastatin A 0.096 | [6] -0.014 | defactinib -0.008 | [7] 0.036 | encorafenib -0.045 | [8] -0.187 | alisertib -0.002 | [9] -0.008 | gefitinib -0.03

LIN28B (UniProt Q6ZN17)
inactive: vemurafenib -0.013 | [1] -0.006 | barasertib -0.017 | [2] 0.017 | volasertib 0.004 | [3] -0.017 | [4] -0.041 | [5] 0.034 | saracatinib 0.025 | sotrastaurin 0.009 | alvocidib -0.014 | Tubastatin A -0.046 | [6] -0.005 | defactinib -0.009 | [7] -0.021 | encorafenib -0.018 | [8] 0.011 | alisertib 0.001 | [9] -0.036 | gefitinib 0.008
